Measured values reported in PMC4777216.
Results are given in words; binding and its absence hold for the method and conditions named. In cells and extracts the contact can be indirect. Some binding calls cover weakened binding; strength is not graded here. For some of these results: Where a sequence is shown, tags or fusion partners need not be part of it.

Protein sequences, listed by entry. Tags and fused reporters are not part of them. Residues count along the entry.
UniProt Q03135: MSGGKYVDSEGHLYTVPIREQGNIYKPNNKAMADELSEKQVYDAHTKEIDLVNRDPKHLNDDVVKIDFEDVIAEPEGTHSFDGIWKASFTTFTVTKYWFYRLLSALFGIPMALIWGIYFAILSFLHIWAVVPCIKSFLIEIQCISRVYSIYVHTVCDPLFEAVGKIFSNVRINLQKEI
UniProt Q01973, residues 30-937: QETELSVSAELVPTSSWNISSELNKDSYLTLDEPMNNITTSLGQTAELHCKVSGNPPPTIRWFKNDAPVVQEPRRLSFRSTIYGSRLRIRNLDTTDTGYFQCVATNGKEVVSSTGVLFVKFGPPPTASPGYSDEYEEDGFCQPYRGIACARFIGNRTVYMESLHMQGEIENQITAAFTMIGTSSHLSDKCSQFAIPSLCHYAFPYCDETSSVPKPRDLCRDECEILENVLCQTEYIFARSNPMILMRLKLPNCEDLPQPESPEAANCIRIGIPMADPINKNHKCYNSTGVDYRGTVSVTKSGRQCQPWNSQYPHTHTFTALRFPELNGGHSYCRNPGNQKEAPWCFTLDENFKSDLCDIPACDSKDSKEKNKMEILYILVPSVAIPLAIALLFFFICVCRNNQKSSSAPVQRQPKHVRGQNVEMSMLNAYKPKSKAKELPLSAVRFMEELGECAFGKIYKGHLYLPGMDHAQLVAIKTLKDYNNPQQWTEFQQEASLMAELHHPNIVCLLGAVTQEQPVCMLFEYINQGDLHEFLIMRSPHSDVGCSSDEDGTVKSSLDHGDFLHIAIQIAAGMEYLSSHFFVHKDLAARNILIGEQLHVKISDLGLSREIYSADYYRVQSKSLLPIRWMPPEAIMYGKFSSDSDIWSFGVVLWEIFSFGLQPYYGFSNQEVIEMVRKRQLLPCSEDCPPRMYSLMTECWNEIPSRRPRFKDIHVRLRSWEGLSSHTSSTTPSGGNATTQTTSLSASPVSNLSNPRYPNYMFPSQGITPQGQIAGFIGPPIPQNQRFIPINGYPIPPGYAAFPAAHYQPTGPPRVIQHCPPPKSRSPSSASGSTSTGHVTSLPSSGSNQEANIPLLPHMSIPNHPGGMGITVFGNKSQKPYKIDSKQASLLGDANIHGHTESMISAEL

Key:
GST-tagged CAV1 = GST-tagged CAV1 (UniProt Q03135); test: pull-down; glutathione beads coated with recombinant GST-tagged protein, mixed with NCI-H1975 extract in octylglucoside buffer (60 mM octylglucoside, 150 mM NaCl, 50 mM EDTA); Western blot; only the target purified
[1] = target: T1, GST-tagged cavin-1-MAD (233–321) (UniProt Q6NZI2); test: as above
T1 sequence: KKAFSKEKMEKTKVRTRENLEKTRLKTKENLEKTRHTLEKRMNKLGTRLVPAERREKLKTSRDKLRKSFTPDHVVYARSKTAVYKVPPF

GST-tagged cavin-1-WT = target: T2, GST-tagged cavin-1-WT (UniProt Q6NZI2); test: as above
T2 sequence: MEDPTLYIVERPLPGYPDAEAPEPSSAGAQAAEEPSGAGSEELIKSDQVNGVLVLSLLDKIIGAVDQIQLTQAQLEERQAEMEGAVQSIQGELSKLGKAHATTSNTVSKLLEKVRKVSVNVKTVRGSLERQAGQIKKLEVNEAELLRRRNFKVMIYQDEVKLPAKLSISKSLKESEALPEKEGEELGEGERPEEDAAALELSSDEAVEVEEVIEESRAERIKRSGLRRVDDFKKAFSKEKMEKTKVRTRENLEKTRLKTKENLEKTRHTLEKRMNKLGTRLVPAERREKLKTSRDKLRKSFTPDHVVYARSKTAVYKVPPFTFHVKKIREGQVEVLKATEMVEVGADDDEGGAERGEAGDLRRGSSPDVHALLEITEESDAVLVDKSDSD

[2] = target: T3, cavin-1 (also known as PTRF), endogenous (human (endogenous in NCI-H1975, SK-LU-1, NCI-H441, PC-9)) (UniProt Q6NZI2); test: co-IP; endogenous proteins; whole-cell lysates of NSCLC cell lines in octylglucoside buffer (60 mM octylglucoside, 150 mM NaCl, 50 mM EDTA); IP with anti-ROR1, anti-cavin-1 or non-specific IgG, Western blot; for cavin-1 with CAV1 cells harvested 24 h after siROR1 or siControl
T3 sequence: T2 sequence

[3] = target: receptor tyrosine kinase-like orphan receptor 1 (ROR1), endogenous (human (endogenous in NCI-H1975, SK-LU-1, NCI-H441, PC-9)) (UniProt Q01973); test: as above
[4] = target: ROR1 wild type expressed in COS-7 (pCMVpuro-ROR1-WT) (UniProt Q01973); test: co-IP; COS-7 co-transfected with ROR1 and cavin-1 or CAV1 constructs, harvested 24 h later in NP-40 lysis buffer (20 mM Tris-HCl pH 8.0, 137 mM NaCl, 2 mM EDTA, 1% NP-40, 10% glycerol, 1 mM Na3VO4); IP–WB

binding (GST-tagged CAV1)	binding [1]	binding (GST-tagged cavin-1-WT)	binding [2]	binding [3]	binding [4]	Substance
binds	binds	binds				receptor tyrosine kinase-like orphan receptor 1 (ROR1), endogenous (from UniProt Q01973 30-937)
		binds	binds	binds		caveolin-1 (CAV1), endogenous (from UniProt Q03135 1-178)
					binds	CAV1-WT-myc expressed in COS-7 (from UniProt Q03135 1-178)
